{"source": "PubChem BioAssay AID1259308 (NCATS, 2017)", "assay": "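Knock-downs that increase output of a recombinant reporter protein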 (primary screen)", "cell system": "human HEK293 embryonic kidney cells stably expressing firefly luciferase (HEK-CMV-Luc2-Hygro)", "reagents": "single siRNA against human genes, 0.8 pmol siRNA per well", "timing": "72 h", "measured": "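Luciferase light (ONE-Glo) measured on one replicate plate set and viability (CellTiter-Glo) on the other, scaled to a negative control siRNA, with robust z-scores and luciferase per cell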", "scale": "total luciferase, z-score and total luciferase, % of control: higher = more reporter protein produced", "active means": "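Active when the median/MAD z-score for overall luciferase is greater than 3; a gene was taken forward for validation with new siRNAs if at least two of its three siRNAs passed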", "calls": "active = raised luciferase; inactive = no rise", "note": "The deposit covers about 59,000 reagents; shown is an unselected part. About 1,510 of all reagents (2.6%) were called active. 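Calls use total luciferase alone and ignore viability, so some active siRNAs may act by altering cell number.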 A number with no mark means an inactive call. The numbers tell different reagents against one gene apart. Not all columns of the deposit are shown."}
{"target gene":"PROS1","reagent no.":1,"total luciferase, z-score":-0.0944,"total luciferase, % of control":80}
{"target gene":"PROS1","reagent no.":2,"total luciferase, z-score":0.79,"total luciferase, % of control":97.6}
{"target gene":"PROS1","reagent no.":3,"total luciferase, z-score":0.054,"total luciferase, % of control":83}
{"target gene":"C8orf33","reagent no.":1,"total luciferase, z-score":-1.3,"total luciferase, % of control":56}
{"target gene":"C8orf33","reagent no.":2,"total luciferase, z-score":-0.581,"total luciferase, % of control":70.3}
{"target gene":"C8orf33","reagent no.":3,"total luciferase, z-score":-0.0539,"total luciferase, % of control":80.8}
{"target gene":"AP1S2P2","reagent no.":1,"total luciferase, z-score":-1.05,"total luciferase, % of control":61}
{"target gene":"AP1S2P2","reagent no.":2,"total luciferase, z-score":-0.221,"total luciferase, % of control":77.5}
{"target gene":"AP1S2P2","reagent no.":3,"total luciferase, z-score":-0.0951,"total luciferase, % of control":80}

Copied from the entries so far (3 entries):
{"target gene":"C8orf33","reagent no.":3,"total luciferase, z-score":-0.0539,"total luciferase, % of control":80.8}
{"target gene":"AP1S2P2","reagent no.":1,"total luciferase, z-score":-1.05,"total luciferase, % of control":61}
{"target gene":"AP1S2P2","reagent no.":2,"total luciferase, z-score":-0.221,"total luciferase, % of control":77.5}

Next results:
{"target gene":"PEMT","reagent no.":1,"total luciferase, z-score":-0.994,"total luciferase, % of control":62.1}
{"target gene":"PEMT","reagent no.":2,"total luciferase, z-score":-0.654,"total luciferase, % of control":68.9}
{"target gene":"PEMT","reagent no.":3,"total luciferase, z-score":-1.32,"total luciferase, % of control":55.6}
{"target gene":"PCDHB9","reagent no.":1,"total luciferase, z-score":-0.595,"total luciferase, % of control":70.1}
{"target gene":"PCDHB9","reagent no.":2,"total luciferase, z-score":0.562,"total luciferase, % of control":93.1}
{"target gene":"PCDHB9","reagent no.":3,"total luciferase, z-score":-0.145,"total luciferase, % of control":79}
{"target gene":"ZNF70","reagent no.":1,"total luciferase, z-score":-0.405,"total luciferase, % of control":73.8}
{"target gene":"ZNF70","reagent no.":2,"total luciferase, z-score":0.294,"total luciferase, % of control":87.7}
{"target gene":"ZNF70","reagent no.":3,"total luciferase, z-score":-0.303,"total luciferase, % of control":75.9}
{"target gene":"LTN1","reagent no.":1,"total luciferase, z-score":-1.31,"total luciferase, % of control":55.9}
{"target gene":"LTN1","reagent no.":2,"total luciferase, z-score":-0.021,"total luciferase, % of control":81.5}
{"target gene":"LTN1","reagent no.":3,"total luciferase, z-score":-0.313,"total luciferase, % of control":75.7}
